This passage reports binding results from patent US20030044914A1 (SALK INSTITUTE FOR BIOLOGICAL STUDIES, published 2003).

No constants are given. Whether binding was seen depends on the method and setting. Some results given as binding are weak or reduced against the parent protein; the word gives no strength.

For experiment [1], the target named is T1, xRXRα (Xenopus laevis) (UniProt P51128).
T1 sequence (looked up): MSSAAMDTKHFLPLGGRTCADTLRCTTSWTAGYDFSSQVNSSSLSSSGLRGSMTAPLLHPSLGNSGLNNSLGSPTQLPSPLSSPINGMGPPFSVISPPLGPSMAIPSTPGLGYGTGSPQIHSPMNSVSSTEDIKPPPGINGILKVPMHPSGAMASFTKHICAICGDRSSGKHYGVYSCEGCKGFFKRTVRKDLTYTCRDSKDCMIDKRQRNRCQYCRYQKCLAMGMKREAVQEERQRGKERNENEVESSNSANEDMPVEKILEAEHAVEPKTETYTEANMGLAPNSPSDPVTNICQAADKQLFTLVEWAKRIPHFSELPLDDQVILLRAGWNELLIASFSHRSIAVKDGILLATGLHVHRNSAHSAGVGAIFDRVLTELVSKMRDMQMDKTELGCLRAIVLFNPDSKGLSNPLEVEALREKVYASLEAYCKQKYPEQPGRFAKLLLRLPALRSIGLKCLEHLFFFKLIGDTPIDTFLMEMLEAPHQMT
As to the kind of experiment: in vitro DNA-binding (gel shift) with in vitro translated proteins.

For experiment [2], the target named is T1, xRXRα (Xenopus laevis). Kind of experiment: in vitro DNA-binding (gel shift) of in vitro translated XOR-6 and xRXRα on direct repeats DR-1 to DR-5. Background: A gel shift assay detects complexes by their altered migration in electrophoresis.

B1: XOR-6 (Xenopus Orphan Receptor 6) (receptor)
chain: MWKVQETLVLEEEEEEEDASNSCGTGEDEDDGDPKICRACGDRATGYHFNAMTCEGCKGFFRRAVKRNLRLSCPFQNSCVINKSNRRHCQACRLKKCLDIGMRKELIMSDAAVEQRRALIKRKHKLTKLPPTPPGASLTPEQQHFLTQLVGAHTKTFDFNFTFSKNFRPIRRSSDPTQEPQATSSEAFLMLPHISDLVTYMIKGIISFAKMLPYFKSLDIEDQIALLKGSVAEVSVIRFNTVFNSDTNTWECGPFTYDTEDMFLAGFRQLFLEPLVRIHRMMRKLNVQSEEYAMMAALSIFASYRPGVCDWEKIQKLQEHIALTLKDFIDSQRPPSPQNRLLYPKIMECLTELRTVNDIHSKQLLEIWDIQPDATPLMREVFGSPE
notes: Expressed from pCDG-XOR6 (XOR-6 protein coding region) in CV-1 cells; Full-length, about 386 amino acids; also called full-length XOR-6
As to B1, the binding result in experiment [1] and in experiment [2] was “binds” in each case.
